PubChem BioAssay AID1508597 | Cure First, 2020

Test: 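Knock-downs altering ovarian cancer cell survival with or without PARP inhibitor rucaparib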 (primary screen)
Cell system: human ovarian carcinoma lines grown from tumours: OCI-P5x (papillary serous) and OCI-C5x (clear cell)
Reagents: siRNA pool against human genes, 1.25 pmol siRNA per well
Duration: 72 h or 96 h, depending on the cell culture
Conditions: rucaparib 20 µM (about IC30) or vehicle, present until read-out
Rucaparib or vehicle: Rucaparib
Cell line: OCI-C5x (clear cell)
Read-out: 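Luminescent ATP-based viability assay read 72 or 96 h after transfection, depending on culture, given as normalised percent viability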
Direction: viability, normalised: higher = more viable cells remaining
Rule for the call: 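Active when normalised viability falls below 80 percent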
Calls: active = viability under 80%; inactive = viability 80% or more
This is a random part of the about 2,100 reagents, under one of the conditions tested. 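Calls flag viability under 80% in either arm, not effects specific to rucaparib; the reference for percent is not stated.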 A reagent listed more than once was tested more than once; the source does not tell the runs apart. Not stated in the record: the 100% reference.

The first 4 records, ahead of the listing:
gene symbol	technical replicate	viability, normalised (%)	Outcome
CCK	1	54.7	active
CCK	2	46.9	active
CCK	3	54.4	active
UCK1	1	45.2	active

The listing, from the first entry:
gene symbol	technical replicate	viability, normalised (%)	Outcome
CCK	1	54.7	active
CCK	2	46.9	active
CCK	3	54.4	active
UCK1	1	45.2	active
UCK1	2	69.7	active
UCK1	3	47.9	active
SMARCD1	1	56.6	active
SMARCD1	2	48.5	active
SMARCD1	3	53.7	active
MED13	1	49.1	active
MED13	2	55.5	active
MED13	3	44.5	active
G2E3	1	48.5	active
G2E3	2	35.4	active
G2E3	3	57.8	active
SMARCA2	1	33.3	active
SMARCA2	2	59.6	active
SMARCA2	3	53.6	active
PCK1	1	59.5	active
PCK1	2	40	active
PCK1	3	60.8	active
RAD54L	1	37.5	active
RAD54L	1	40.9	active
RAD54L	2	43.4	active
RAD54L	2	39.9	active
RAD54L	3	40.6	active
RAD54L	3	39	active
WIZ	1	72	active
WIZ	2	48.1	active
WIZ	3	48.1	active
TJP3	1	59.3	active
TJP3	2	52.6	active
TJP3	3	48.3	active
TXK	1	37.6	active
TXK	1	40.1	active
TXK	2	52.6	active
TXK	2	59.2	active
TXK	3	56.4	active
TXK	3	49.9	active
TGFB1	1	75.3	active
TGFB1	2	60.5	active
TGFB1	3	55.8	active
CCNH	1	42.8	active
CCNH	2	43.5	active
CCNH	3	43.8	active
ZCCHC13	1	73.5	active
ZCCHC13	2	61.2	active
ZCCHC13	3	56.3	active
CHD6	1	73.5	active
CHD6	2	58.8	active
CHD6	3	55.5	active
POLG	1	62.6	active
POLG	2	62.4	active
POLG	3	70.6	active
KIT	1	42.1	active
KIT	2	55.6	active
KIT	3	49.7	active
